Laboratory results: PubChem BioAssay AID1671190 (National Center for Advancing Translational Sciences (NCATS), 2021)
Values joined by “and” are separate entries in the source; they are usually repeats but may differ in a detail not shown here. Equal values may be shown once. Out of some 580,000 compounds screened, about 6,100 (1.1%) were called active. Inconclusive results, whose numbers are uncertain, are shown with a selection of clear calls. Calls come from the whole dose curve; as a rule, active = well fitted inhibition curve with a large enough effect; inconclusive = small, poorly fitted or top-dose-only effect, or another doubt; inactive = no such curve, though single readings can be large or run the other way. A potency beside an inconclusive call is a rough fit, not a confirmed value.
% is set by controls: 0 for no effect and ±100 for the full control effect; potency is the fitted concentration of half-maximal effect.

Chains of the proteins cited; added tags and fusions are not shown. Lines headed by an entry give the natural chain unless they say otherwise; changes in a name come on top.
UniProt P18054: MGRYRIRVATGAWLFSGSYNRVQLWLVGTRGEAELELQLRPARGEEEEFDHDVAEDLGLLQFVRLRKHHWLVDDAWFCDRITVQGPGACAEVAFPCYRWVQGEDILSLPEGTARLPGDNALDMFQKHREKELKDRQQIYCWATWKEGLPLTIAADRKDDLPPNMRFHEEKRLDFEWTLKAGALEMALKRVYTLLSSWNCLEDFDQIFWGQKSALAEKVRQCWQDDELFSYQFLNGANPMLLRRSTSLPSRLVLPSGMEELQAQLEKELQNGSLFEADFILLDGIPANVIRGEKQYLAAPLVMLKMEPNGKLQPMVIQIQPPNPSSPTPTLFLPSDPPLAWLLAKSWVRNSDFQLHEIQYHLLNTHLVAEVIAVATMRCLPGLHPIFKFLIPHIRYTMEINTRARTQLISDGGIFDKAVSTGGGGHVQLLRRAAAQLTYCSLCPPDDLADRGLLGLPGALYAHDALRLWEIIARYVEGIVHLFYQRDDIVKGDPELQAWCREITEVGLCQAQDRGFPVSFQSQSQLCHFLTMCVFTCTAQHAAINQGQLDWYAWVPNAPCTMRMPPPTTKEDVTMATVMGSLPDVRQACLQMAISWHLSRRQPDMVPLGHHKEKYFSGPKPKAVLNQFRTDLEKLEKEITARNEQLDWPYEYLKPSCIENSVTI

Each molecule was assayed against Polyunsaturated fatty acid lipoxygenase ALOX12 (Homo sapiens) (UniProt P18054) (assay: Primary qHTS assay for inhibitors of human arachidonate 12S-lipoxygenase (ALOX12): Round 2). Conditions: purified 12hLO, xylenol orange hydroperoxide absorbance; activity change, negative = inhibition: at 108 µM (top of the series) unless noted.
In short: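 Purified human 12hLO at 150 nM in 25 mM Hepes, 0.01% Triton X-100, pH 7.0, preincubated 15 min at room temperature with compound. Reaction started with 40 uM arachidonic acid, 30 min at room temperature. Hydroperoxide measured by Fe-xylenol orange, 573/405 nm absorbance ratio.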
In the case of `O=C(Nc1cccc(Cl)c1)c1ccc(Cn2c(=O)c3cccn3c3cccnc32)cc1`, the Potency is reported as “inactive”.
`CCc1ccc(NC(=O)Cn2c(=O)c(-c3noc(CC)n3)c3n(c2=O)CCCC3)cc1` was tested, and the Potency was inconclusive: 50.1 µM [inhibitor, partial curve, poor fit].
`NC(=O)C1CCN(C(=O)Cc2c[nH]c3ccccc23)CC1` was tested, and the Potency was “inactive”.
`Cc1nc(C(=O)NCCO)cc2c1[nH]c1ccccc12` was tested, and the Potency was “inactive”.
With `Cc1ccc(-c2cc(C(=O)NCCN3CCOCC3)c3ccccc3n2)o1` the Potency was inconclusive: 50.1 µM [inhibitor, partial curve, poor fit].
For `CC(NC(=O)CCc1ncc(-c2ccccc2)o1)c1ccc(Cl)cc1` (stereo not drawn), the Potency was inconclusive: 89.1 µM [inhibitor, single point].
For `Cc1ccc(C(C)NC(=O)C2CCN(CC(C)C)CC2)s1` (stereo not drawn), the Potency was inconclusive: 44.7 µM [inhibitor, partial curve, poor fit].
For `CCNc1c(NC(=O)Nc2cc(OC)cc(OC)c2)c(=O)oc2ccccc12`, the Potency was inconclusive: 50.1 µM [inhibitor, partial curve, poor fit].
In the case of `N#Cc1nc(Cc2cccc3ccccc23)oc1N1CCCCC1`, the Potency is reported as inconclusive: 0.398 µM [inhibitor, full curve, poor fit].
For `COC(=O)Cc1[nH]n(-c2nc3ccccc3s2)c(=O)c1C(C)=O`, the Potency was inconclusive: 2 µM [inhibitor, partial curve, poor fit].
For `COCCNC(=O)c1cc(-c2ccccc2OC)on1`, the Potency was “inactive”.
`COCCN1CC(CNC(=O)c2cc(COc3ccccc3SC)on2)CC1=O` (stereo not drawn) was tested, and the Potency was inconclusive: 44.7 µM [inhibitor, full curve, poor fit].
In the case of `CCn1c(CCCOc2ccc(Cl)cc2C)nnc1SCc1ccc(Cl)cc1`, the Potency is reported as inconclusive: 44.7 µM [inhibitor, full curve, poor fit].
With `CCOC(=O)CCC(=O)N1CCOCCOCCOCC1` the Potency was inconclusive: 3.55 µM [inhibitor, full curve, poor fit].
In the case of `CN1CCN(CC(O)COc2ccc(Cl)cc2)CC1` (stereo not drawn), the Potency is reported as inconclusive: 39.8 µM [inhibitor, partial curve, poor fit].
With `c1ccc(COc2ccc3[nH]ccc3c2)cc1` the Potency was inconclusive: 50.1 µM [inhibitor, partial curve, poor fit].
`O=S(=O)(Nc1ccc(N=Nc2ccc(O)c3ccccc23)cc1)c1ccccc1` was tested, and the Potency was inconclusive: 28.2 µM [inhibitor, full curve, poor fit].
For `C=CCOc1ccc(CNn2cn[nH]c2=S)cc1OCC`, the Potency was inconclusive: 39.8 µM [inhibitor, partial curve, poor fit].
`Cc1cccc(C(=O)N/N=C2/CC(=O)CC(C)(C)C2)c1` was tested, and the Potency was “inactive”.
With `Oc1csc(Cc2nc(-c3ccccc3F)cs2)n1` the Potency was inconclusive: 35.5 µM [inhibitor, partial curve].
`Cn1[nH]c(CSc2ccc(Cl)cc2)cc1=O` was tested, and the Potency was inconclusive: 50.1 µM [inhibitor, partial curve, poor fit].
For `c1ccc(-c2nc(CSC3=NCCCN3)cs2)cc1`, the Potency was active: 15.8 µM.
In the case of `COc1ccc(CNCc2ccc(C)cc2)c(OC)c1`, the Potency is reported as inconclusive: 7.08 µM [inhibitor, full curve, poor fit].
With `CCOc1ccccc1NC(=O)CSc1nnc2c3cc(-c4ccc(Cl)cc4)nn3ccn12` the Potency was inconclusive: 100 µM [inhibitor, single point].
For `CC(c1ccco1)N(C(=O)c1ccccc1NS(=O)(=O)c1cc([N+](=O)[O-])ccc1Cl)c1ccccn1` (stereo not drawn), the Potency was inconclusive: 35.5 µM [inhibitor, partial curve, poor fit].
`CC(=O)Nc1ccc(S(=O)(=O)/N=C2/NC(=O)/C(=C\c3ccco3)S2)cc1` was tested, and the Potency was inconclusive: 44.7 µM [inhibitor, partial curve, poor fit].
`COc1ccc2c(C)c(CCC(=O)Nc3ccc(Br)c(C)c3)c(=O)oc2c1` was tested, and the Potency was inconclusive: 35.5 µM [inhibitor, partial curve, poor fit].
With `COc1cccc2c1-c1c(O)cccc1C2=O` the Potency was inconclusive: 44.7 µM [inhibitor, single point].
For `Cc1ccc(NS(=O)(=O)c2ccc(N3CCN(c4ccc(O)cc4)CC3)c([N+](=O)[O-])c2)c(C)c1`, the Potency was inconclusive: 5.01 µM [inhibitor, partial curve, poor fit].
With `Cc1ccccc1NC(=S)/C(=C(\[O-])c1cc(C)n(Cc2ccccc2Cl)c1C)[n+]1ccccc1` the Potency was inconclusive: 50.1 µM [inhibitor, partial curve, poor fit].
`Cc1nn(-c2ccc(C(F)(F)F)cc2)c(C)c1[C@@H]1C=C[C@@H](NC(=O)c2ccc(N(C)C)cc2)C1` was tested, and the Potency was inconclusive: 89.1 µM [inhibitor, partial curve, poor fit].
For `Cn1cnnc1SCC(=O)c1ccc2c(c1)CCCC2`, the Potency was inconclusive: 35.5 µM [inhibitor, partial curve, poor fit].
`CCOC(=O)C(Cc1ccccc1)C(=O)NCc1ccccc1` (stereo not drawn) was tested, and the Potency was “inactive”.
With `CCCNC(=O)NC(=O)CN(C)Cc1ccccc1Br` the Potency was inconclusive: 35.5 µM [inhibitor, single point].
For `Cc1ccsc1[C@@H]1CCN(Cc2ccc(C#CC(C)(C)O)cc2)C[C@H]1O`, the Potency was active: 44.7 µM.
With `Cc1ccc(N(Cc2cccs2)C(=O)c2ccc(Br)o2)cc1` the Potency was “inactive”.
`O=C(Nc1nccs1)c1ccc(-c2cccc([N+](=O)[O-])c2)o1` was tested, and the Potency was “inactive”.
In the case of `Cc1cc(S(=O)(=O)N2CCCC(Cn3cnc4cccnc43)C2)ccc1Cl` (stereo not drawn), the Potency is reported as “inactive”.
`Cc1ccc(-n2nc(C)c3c2NC2=C(C(=O)CC(C)(C)C2)C3c2ccccc2OCC(=O)O)cc1` (stereo not drawn) was tested, and the Potency was “inactive”.
`COc1ccc2c(c1)cc(C(=O)N1Cc3[nH]cnc3CC1C(=O)O)n2C` (stereo not drawn) was tested, and the Potency was “inactive”.
For `COc1ccc(-c2nc(-c3cccc(C(F)(F)F)c3)no2)cc1OC`, the Potency was “inactive”.
In the case of `Cc1c(C)c2c(c(C)c1O)CCC(C)(COc1ccc(CC3SC(=O)NC3=O)cc1)O2` (stereo not drawn), the Potency is reported as inconclusive: 2.43 µM [inhibitor, full curve, poor fit] and inconclusive: 100 µM [inhibitor, partial curve, poor fit].
`O=[N+]([O-])c1cc(C(F)(F)F)cc([N+](=O)[O-])c1NN=C1CCCCC1` was tested, and the Potency was inconclusive: 63.1 µM [inhibitor, partial curve, poor fit].
In the case of `CC(C)(C)c1ccc(O)c(NC(=O)CC(C(=O)O)c2ccc(F)cc2)c1` (stereo not drawn), the Potency is reported as inconclusive: 44.7 µM [inhibitor, partial curve, poor fit].
`CNC(=O)/C(C#N)=C/c1c(N2CCCCCC2)nc2ccccn2c1=O` was tested, and the Potency was inconclusive: 44.7 µM [inhibitor, partial curve, poor fit].
With `Cc1ccc(O)c(N=Nc2ccccc2)n1` the Potency was inconclusive: 56.2 µM [inhibitor, partial curve, poor fit] and inconclusive: 12.6 µM [inhibitor, partial curve, poor fit].
`c1ccc2c(CSc3nc4ccccc4s3)cccc2c1` was tested, and the Potency was inconclusive: 0.112 µM [inhibitor, full curve, poor fit].
`COc1ccc(F)c(CN2CCC(n3nccc3NC(=O)C3CCOC3)CC2)c1` (stereo not drawn) was tested, and the Potency was inconclusive: 79.4 µM [inhibitor, partial curve, poor fit].
For `CC(=O)Nc1ccc(NC(=O)COC(=O)c2ccc(S(=O)(=O)N(C)c3ccccc3)cc2)cc1`, the Potency was inconclusive: 126 µM [inhibitor, single point].
For `Cc1ccc(S(=O)(=O)N(CC(=O)Nc2cccnc2)c2ccccc2C)cc1`, the Potency was inconclusive: 70.8 µM [inhibitor, partial curve, poor fit].
With `Cc1ccc(NC(=O)Nc2ccc(C)n(CC(=O)NC(C)c3cccnc3)c2=O)cc1` (stereo not drawn) the Potency was inconclusive: 70.8 µM [inhibitor, partial curve, poor fit].
For `CCc1nc2c(c(-c3ccc(Cl)cc3)n1)CN(C(=O)c1ccccc1C)CC2`, the Potency was inconclusive: 50.1 µM [inhibitor, partial curve, poor fit].
For `CCCn1c(=S)[nH]c2cc(C(=O)N3CCN(C4CCCCC4)CC3)ccc2c1=O`, the Potency was “inactive”.
In the case of `CCOC(=O)[C@]12CCC=C1N(Cc1ccc3c(c1)OCO3)C(=O)[C@H](CC(=O)NCc1cccs1)C2`, the Potency is reported as inconclusive: 50.1 µM [inhibitor, partial curve, poor fit].
`CCOc1ncccc1Cn1cc(-c2cncnc2)nn1` was tested, and the Potency was “inactive”.
`COC(=O)CC1c2ccccc2S(=O)(=O)N1Cc1ccccc1` (stereo not drawn) was tested, and the Potency was “inactive”.
With `CCc1ccc(-c2csc(/C(C#N)=C/Nc3c(C)cc(C)cc3C)n2)cc1` the Potency was inconclusive: 50.1 µM [inhibitor, partial curve, poor fit].
For `O=C(N1CCSCC1)C1(c2ccc(Cl)cc2)CCOCC1`, the activity change, negative = inhibition was inactive: -4.08% [at 6.33 µM].
With `COc1cc(OC)cc(C(=O)NCC(=O)OCC(=O)/C=C2/N(C)c3ccccc3C2(C)C)c1` the Potency was “inactive”.
With `COc1ccc(-c2c(C)c3ccc(OCCN4CCN(C)CC4)cc3oc2=O)cc1OC` the Potency was inconclusive: 0.251 µM [inhibitor, full curve, poor fit].
With `CCn1cc(C(=O)OCC(=O)Nc2ccc(F)cc2F)c(=O)c2ccc(C)nc21` the Potency was inconclusive: 79.4 µM [inhibitor, partial curve, poor fit].
`S=C1NN=C(c2ccccc2)C(c2ccccc2)N1` (stereo not drawn) was tested, and the Potency was inconclusive: 50.1 µM [inhibitor, partial curve, poor fit].
In the case of `O=C(NCCc1c[nH]c2ccc(Cl)cc12)c1c(F)cccc1F`, the Potency is reported as inconclusive: 79.4 µM [inhibitor, single point].
